Data from publication PMC12040169 (PLOS Biology, 2025).
Some of the results follow.

tested on: T1, CTL2-GFP (C. trachomatis L2/434/Bu, GFP-expressing); set-up: species or system HeLa; Intracellular C. trachomatis growth in HeLa cells, bulk GFP fluorescence relative to DMSO; settings: bulk GFP, single well; 28.5 h, 10 µM; inhibitor
T1 construct: L2/434/Bu, GFP-expressing

| SMILES | % of control remaining [%] |
| --- | --- |
| O=C(NCCO)C1(Cc2ccc(-c3ccccc3)cc2)CCNC1 (stereo not drawn) [CBK283043] | 109.227 |
| COc1ccc(CNC2CCCc3ccccc32)c(OC)c1C (stereo not drawn) [CBK025778G] | 138.443 |
| O=C(CCn1cnc2ccccc2c1=O)Nc1ccc(S(=O)(=O)N2CCOCC2)cc1 [CBK267645] | 120.077 |
| Cc1ccccc1C(=O)Nc1ccc(F)c(F)c1 [CBK058249] | 113.751 |
| CSc1nccc(N2CCC(NCCCn3ccnn3)CC2)n1 [CBK307076] | 120.375 |
| CC(C)n1c(NCc2ccccc2)nc2c1c(=O)n(C)c(=O)n2C [CBK140094] | 90.7654 |
| Cc1ccc2c(c1)cc(C(=O)N1CCOC(C(=O)N3CCc4ccccc4C3)C1)n2C (stereo not drawn) [CBK286035] | 117.844 |
| O=C(O)COCC(=O)N1CCN(c2ccccc2Cl)CC1 [CBK268155] | 102.021 |
| Cc1nn(-c2ccccc2)c(O)c1Cc1c(Cl)cccc1Cl [CBK067760] | 68.7441 |
| C=C[C@H]1C[N@@]2CC[C@H]1C[C@@H]2CNS(=O)(=O)c1cccc2cccnc12 [CBK288751] | 145.431 |
| CN1CCC(=NNC(=O)CN(c2cccc(Cl)c2)S(=O)(=O)c2ccccc2)CC1 [CBK262489] | 133.041 |
| O=C(CSc1ccc2nnc(-c3ccc(F)cc3)n2n1)N1CCOCC1 [CBK287521] | 144.318 |
| COc1ccc(C(NC(=O)c2cn3ccsc3n2)[C@H]2C[C@H](O)C2)cn1 (stereo partly drawn) [CBK306744] | 84.5185 |
| CCC(SC1=NCCS1)C(=O)Nc1ccc(NC(C)=O)cc1 (stereo not drawn) [CBK266199] | 149.855 |
| Cc1cccc(NC(=O)CSc2ncnc3sc4c(c23)CCC(C)C4)c1 (stereo not drawn) [CBK265738] | 118.895 |
| CCN(C(=O)Cc1cc(OC)ccc1Br)c1cccnc1 [CBK305318] | 161.066 |
| Cc1nnc(SCc2cc(=O)[nH]c(Nc3nc(C)c4cccc(C)c4n3)n2)s1 [CBK266740] | 119.045 |
| O=C(c1cc(F)c(F)cc1F)N1CCC2(CCCN(Cc3ccc(Cl)c(Cl)c3)C2)C1 (stereo not drawn) [CBK131990] | 116.718 |
| CCC1CCCCN1C(=O)c1ccccc1OC (stereo not drawn) [CBK083205] | 112.315 |
| O=C(c1nc2ccccc2[nH]1)N1CCC(F)CC1 [CBK200278] | 119.851 |
| S=C(NCC1CCN(C(=S)NC2CCCCC2)CC1)NC1CCCCC1 [CBK004987] | 156.179 |
| CCCCN(C)CCNC(=O)c1ccc2c(c1)NC(=O)C(N1CCCCC1)S2 (stereo not drawn) [CBK071799] | 117.248 |
| Cc1ccc(NC(=O)C(=O)NCCCn2ccnc2)cc1Cl [CBK264238] | 127.078 |
| O=C(Nc1ccc2oc(-c3cccnc3)nc2c1)c1ccc(-c2ccccc2)cc1 [CBK264035] | 131.12 |
| FC(F)(F)Oc1ccc(CNc2nccnc2-c2cccs2)cc1 [CBK036806] | 156.067 |
| CCn1cc(C(=O)NN)c(=O)c2cc(F)c(N3CCCC3)cc21 [CBK307146] | 135.755 |

9 structures from above, ordered by heavy-atom count, ascending:

| SMILES | % of control remaining [%] |
| --- | --- |
| O=C(c1nc2ccccc2[nH]1)N1CCC(F)CC1 [CBK200278] | 119.851 |
| O=C(O)COCC(=O)N1CCN(c2ccccc2Cl)CC1 [CBK268155] | 102.021 |
| CCC(SC1=NCCS1)C(=O)Nc1ccc(NC(C)=O)cc1 (stereo not drawn) [CBK266199] | 149.855 |
| COc1ccc(CNC2CCCc3ccccc32)c(OC)c1C (stereo not drawn) [CBK025778G] | 138.443 |
| C=C[C@H]1C[N@@]2CC[C@H]1C[C@@H]2CNS(=O)(=O)c1cccc2cccnc12 [CBK288751] | 145.431 |
| O=C(CSc1ccc2nnc(-c3ccc(F)cc3)n2n1)N1CCOCC1 [CBK287521] | 144.318 |
| CN1CCC(=NNC(=O)CN(c2cccc(Cl)c2)S(=O)(=O)c2ccccc2)CC1 [CBK262489] | 133.041 |
| O=C(Nc1ccc2oc(-c3cccnc3)nc2c1)c1ccc(-c2ccccc2)cc1 [CBK264035] | 131.12 |
| Cc1ccc2c(c1)cc(C(=O)N1CCOC(C(=O)N3CCc4ccccc4C3)C1)n2C (stereo not drawn) [CBK286035] | 117.844 |

(continued)

| SMILES | % of control remaining [%] |
| --- | --- |
| O=C(CCn1c(-c2ccccn2)cc2cccnc21)NC1CCCC1 [CBK284965] | 111.383 |
| OC(CN(c1ccccc1)c1ccccc1)Cn1cnc2ccccc21 (stereo not drawn) [CBK261417] | 108.292 |
| Cc1nc2ccc(C(=O)N3CCN(c4ccccc4)CC3)cn2c1N(C)C(=O)c1cccs1 [CBK146544] | 104.437 |
| CCC(C)(C)c1ccc(S(=O)(=O)Nc2cc(Cl)ccc2O)cc1 [CBK045243] | 68.9477 |
| c1ccc(CCN2CCC(Cc3ccccc3)CC2)cc1 [CBK126434] | 116.109 |
| COCCn1c(SCc2cn3c(C)cc(C)nc3n2)nc(C)c1C [CBK306489] | 117.408 |
| Cn1c(SCc2nnc(-c3ccccc3)o2)nnc1C(O)c1ccccc1 (stereo not drawn) [CBK269640] | 144.124 |
| O=C(CCn1c2ccccc2c2ccccc21)N1CCn2cnnc2C1 [CBK283645] | 108.862 |
| CCN(CC)C(=O)CCn1c(-c2cccnc2C)cc2cccnc21 [CBK282147] | 121.637 |
| Clc1ccc(Nc2nnc(-c3[nH]ncc3NCc3ccncc3)o2)cc1 [CBK288588] | 119.176 |
| Cc1nc(C)n(CC(=O)N2CCc3sccc3C2c2ccco2)n1 (stereo not drawn) [CBK281649] | 128.767 |
| Cc1ccc(-c2cncc(N(C)CCN(C)C)n2)cc1C [CBK065990] | 209.046 |
| CN(C)CCN(Cc1ccncc1)Cc1cc(F)cc(F)c1 [CBK283096] | 127.744 |
| COc1ccc(-c2cccc(Nc3cc(OC)c(OC)c(OC)c3)n2)cc1OC [CBK037634] | 108.192 |
| Cc1n[nH]c(=O)c2noc(C)c12 [CBK000857] | 143.349 |
| Cc1ccc(OCCSc2nc3ccccc3n2CC(=O)O)c(C(C)C)c1 [CBK300483] | 146.944 |
| CN(C)S(=O)(=O)c1c(Cl)cccc1Cl [CBK091643] | 137.735 |
| Cc1ccc(OCC(=O)NC(=S)Nc2cc(C(=O)O)ccc2C)cc1C [CBK264955] | 124.128 |
| Cc1nc(C(F)(F)F)ccc1NC(=O)CSCC(=O)O [CBK056975] | 151.903 |
| Cc1cc(=O)oc(-c2ccccc2)c1C#N [CBK004842] | 99.8807 |
| CCc1cccc2c(C=C3C(=O)N(CC(=O)O)C(=O)c4ccccc43)c[nH]c12 [CBK295153] | 168.592 |
| COc1cccc2c3c([nH]c12)C1(CCCN(C/C=C\c2ccccc2)C1)NCC3 (stereo not drawn) [CBK040138] | 89.7267 |
| CC(C)(C)C(=O)N1CCC(c2nnc3n2CCCCC3)CC1 [CBK285311] | 144.025 |
| CN(C)CCN(Cc1cc2cc3c(cc2[nH]c1=O)OCO3)C(=S)Nc1ccc(F)cc1 [CBK135186] | 126.653 |
| O=C(Nc1ccc(OCc2ccccc2)cc1)OCC1CN(Cc2ccccc2)CCO1 (stereo not drawn) [CBK074792] | 106.679 |
